*: point of attachment. Tos = Cc1ccc(S(=O)(=O)*)cc1; ClZ = O=C(OCc1ccccc1Cl)*; Cbz = O=C(OCc1ccccc1)*; Boc = CC(C)(C)OC(=O)*; OcHex = C1CCC(O*)CC1; OBn = c1ccc(CO*)cc1; Bn = c1ccc(C*)cc1
Test: general procedure: solution-phase peptide synthesis; azide method (isoamyl nitrite/HCl-dioxane); OSu active esters; TFA-ONp (p-nitrop)
Conditions: coupling step

Substance	step yield
Boc-His(Tos)-Lys(Cl-Z)-Leu-Gln-Thr(Bzl)-Tyr(Cl2-Bzl)-Pro-Gln-Thr(Bzl)-Asp(OcHex)-Val-Gly-Ala-Gly-Thr(Bzl)-Pro--NH2	89.3%
Boc-K(Cbz)LS(Bn)QE(OBn)LHK(Bn)LQT(Bn)Y(Bn)PR(Tos)T(Bn)D(OBn)VGAGT(Bn)P-NH2	94.7%
Boc-K(Cbz)LS(Bn)QE(OBn)LHK(ClZ)LQT(Bn)LPR(Tos)T(Bn)D(OcHex)VGAGT(Bn)P-NH2	89.6%
Boc-K(Cbz)LS(Bn)QE(OBn)LHK(ClZ)LQT(Bn)PGT(Bn)D(OcHex)VGAGT(Bn)P-NH2	76.6%
Boc-K(Cbz)LS(Bn)QE(OcHex)K(ClZ)LQT(Bn)PQT(Bn)D(OcHex)VGAGT(Bn)P-NH2	89.6%
Boc-K(Cbz)LS(Bn)QE(OcHex)LAK(ClZ)LQT(Bn)PR(Tos)T(Bn)D(OcHex)VGAGT(Bn)P-NH2	98.3%
Boc-K(Cbz)LS(Bn)QE(OcHex)LD(OcHex)K(ClZ)LQT(Bn)PR(Tos)T(Bn)D(OcHex)VGAGT(Bn)P-NH2	89.8%
Boc-K(Cbz)LS(Bn)QE(OcHex)LFK(ClZ)LQT(Bn)PR(Tos)T(Bn)D(OcHex)VGAGT(Bn)P-NH2	99.0%
Boc-K(Cbz)LS(Bn)QE(OcHex)LGK(ClZ)LGT(Bn)Y(Bn)PR(Tos)T(Bn)D(OBn)VGAGT(Bn)P-NH2	95.2%
Boc-K(Cbz)LS(Bn)QE(OcHex)LGK(ClZ)LQT(Bn)PNT(Bn)D(OcHex)VGAGT(Bn)P-NH2	87.6%
Boc-K(Cbz)LS(Bn)QE(OcHex)LGK(ClZ)LQT(Bn)PQT(Bn)D(OcHex)VGAGT(Bn)P-NH2	82.5%
Boc-K(Cbz)LS(Bn)QE(OcHex)LGNLQT(Bn)PQT(Bn)D(OcHex)VGAGT(Bn)P-NH2	83.5%
Boc-K(Cbz)LS(Bn)QE(OcHex)LHGLQT(Bn)PR(Tos)T(Bn)D(OcHex)VGAGT(Bn)P-NH2	99.5%
Boc-K(Cbz)LS(Bn)QE(OcHex)LHK(ClZ)QT(Bn)PQT(Bn)D(OBn)VGAGT(Bn)P-NH2	88.3%
Boc-K(Cbz)LS(Bn)QE(OcHex)LHK(ClZ)QT(Bn)PR(Tos)T(Bn)D(OcHex)VGAGT(Bn)P-NH2	94.1%
Boc-K(Cbz)LS(Bn)QE(OcHex)LHLQT(Bn)PT(Bn)D(OcHex)VGAGT(Bn)P-NH2	94.9%
Boc-K(Cbz)LS(Bn)QE(OcHex)LK(ClZ)LQT(Bn)PR(Tos)T(Bn)D(OcHex)VGAGT(Bn)P-NH2	90.2%
Boc-K(Cbz)LS(Bn)QE(OcHex)LLK(ClZ)LQT(Bn)PQT(Bn)D(OcHex)VGAGT(Bn)P-NH2	92.0%
Boc-K(Cbz)LS(Bn)QE(OcHex)LLK(ClZ)LQT(Bn)PR(Tos)T(Bn)D(OcHex)VGAGT(Bn)P-NH2	92.1%
Boc-K(Cbz)LS(Bn)QE(OcHex)LNK(ClZ)LQT(Bn)PQT(Bn)D(OcHex)VGAGT(Bn)P-NH2	88.0%
Boc-K(Cbz)LS(Bn)QE(OcHex)LNK(ClZ)LQT(Bn)Y(Bn)PR(Tos)T(Bn)D(OBn)VGAGT(Bn)P-NH2	95.3%
Boc-K(Cbz)LS(Bn)QE(OcHex)LQK(ClZ)LQT(Bn)PNT(Bn)D(OcHex)VGAGT(Bn)P-NH2	87.5%

Substance	step yield
Boc-K(Cbz)LS(Bn)QE(OcHex)LQK(ClZ)LQT(Bn)PR(Tos)T(Bn)D(OcHex)VGAGT(Bn)P-NH2	95.6%
Boc-K(ClZ)LQT(Bn)LPR(Tos)T(Bn)D(OcHex)VGAGT(Bn)P-NH2	67.0%
Boc-K(ClZ)LQT(Bn)PGT(Bn)D(OcHex)VGAGT(Bn)P-NH2	86.1%
Boc-K(ClZ)LQT(Bn)PNT(Bn)D(OcHex)VGAGT(Bn)P-NH2	87.4%
Boc-K(ClZ)LQT(Bn)PQT(Bn)D(OBn)VGAGT(Bn)P-NH2	95.3%
Boc-K(ClZ)LQT(Bn)PR(Tos)T(Bn)D(OEt)VGAGT(Bn)P-NH2	96.9%
Boc-K(ClZ)LQT(Bn)PR(Tos)T(Bn)D(OcHex)VGAGT(Bn)P-NH2	95.7%
Boc-K(ClZ)LQT(Bn)PT(Bn)D(OBn)VGAGT(Bn)P-NH2	98.7%
Boc-K(ClZ)LS(Bn)QE(OcHex)LGK(ClZ)LQT(Bn)PR(Tos)T(Bn)D(OcHex)VGAGT(Bn)P-NH2	93.8%
Boc-K(ClZ)LS(Bn)QE(OcHex)LNK(ClZ)LQT(Bn)LPQT(Bn)D(OcHex)VGAGT(Bn)P-NH2	89.3%
Boc-K(ClZ)LS(Bn)QE(OcHex)LNK(ClZ)LQT(Bn)PR(Tos)T(Bn)D(OcHex)VGAGT(Bn)P-NH2	90.0%
Boc-K(ClZ)QT(Bn)PQT(Bn)D(OBn)VGAGT(Bn)P-NH2	95.8%
Boc-K(ClZ)QT(Bn)PR(Tos)T(Bn)D(OcHex)VGAGT(Bn)P-NH2	93.0%
Boc-LHGLQT(Bn)PGT(Bn)D(OcHex)VGAGT(Bn)P-NH2	78.8%
Boc-LHGLQT(Bn)PR(Tos)T(Bn)D(OcHex)VGAGT(Bn)P-NH2	98.1%
Boc-LHK(ClZ)LQT(Bn)LPR(Tos)T(Bn)D(OcHex)VGAGT(Bn)P-NH2	93.6%
Boc-LHK(ClZ)LQT(Bn)PGT(Bn)D(OcHex)VGAGT(Bn)P-NH2	87.6%
Boc-LHK(ClZ)LQT(Bn)PQT(Bn)D(OBn)VGAGT(Bn)P-NH2	91.3%
Boc-LHK(ClZ)LQT(Bn)PR(Tos)T(Bn)D(OEt)VGAGT(Bn)P-NH2	90.8%
Boc-LHK(ClZ)QT(Bn)PQT(Bn)D(OBn)VGAGT(Bn)P-NH2	89.1%
Boc-LHLQT(Bn)PT(Bn)D(OcHex)VGAGT(Bn)P-NH2	91.9%
Boc-LK(ClZ)LQT(Bn)PQT(Bn)D(OcHex)VGAGT(Bn)P-NH2	80.8%

Substance	step yield
Boc-LK(ClZ)LQT(Bn)PR(Tos)T(Bn)D(OcHex)VGAGT(Bn)P-NH2	95.5%
Boc-LQT(Bn)PT(Bn)D(OcHex)VGAGT(Bn)P-NH2	91.6%
Boc-LS(Bn)QE(OcHex)LHLQT(Bn)PT(Bn)D(OcHex)VGAGT(Bn)P-NH2	90.9%
Boc-Leu-His(Tos)-Lys(Cl-Z)-Leu-Gln-Thr(Bzl)-D-Tyr(Cl2 -Bzl)-Pro-Arg(Tos)-Thr(Bzl)-Asp(OcHex)-Val-Gly-Ala-Gly-Thr(Bzl)-Pro--NH2	92.4%
Boc-Leu-His(Tos)-Lys(Cl-Z)-Leu-Gln-Thr(Bzl)-Pro-Arg(Tos)-Thr(Bzl)-Asp(OcHex)-Val-Gly-Ala-Gly-Thr(bzl)-Pro--NH2	88.2%
Boc-Leu-His-Lys(Bz)-Leu-Gln-Thr(Bzl)-Tyr-(Bzl)-Pro-Arg(Tos)-Thr(Bzl)-Asp(OBzl)-Val-Gly-Ala-Gly-Thr(Bzl)-Pro--NH2	92.0%
Boc-Leu-His-Lys(Cl Z)-Gln-Thr(Bzl)-Pro-Arg(Tos)-Thr(Bzl)-Asp(OcHex)-Val-Gly-Ala-Gly-Thr(Bzl)- Pro--NH2	102.0%
Boc-Lys(Bz)-Leu-Gln-Thr(Bzl)-Tyr(Bzl)-Pro-Arg(Tos)-Thr(Bzl)-Asp(Obzl)-Val- Gly-Ala-Gly-Thr(Bzl)-Pro--NH2	95.3%
Boc-Lys(Bz)-Leu-Ser(Bzl)-Gln-Glu(OBzl)-Leu-His-Lys(Bz)-Leu-Gln-Thr(Bzl)-Tyr(Bzl)-Pro-Arg(Tos)-Thr(Bzl)-Asp(OBzl)-Val-Gly-Ala-Gly-Thr(Bzl)-Pro--NH2	98.9%
Boc-Lys(Bz)-Leu-Ser(Bzl)-Gln-Glu(OBzl)-Leu-His-Lys(Cl-Z)-Leu-Gln-Thr(Bzl)- Tyr(Bzl)-Pro-Arg(Tos) Thr(Bzl)-Asp(OBzl)-Val-Gly-Ala-Gly-Thr(Bzl)-Pro--NH2	80.6%
Boc-Lys(COCH3)-Leu-Ser(Bzl)-Gln-Glu(OBzl)-Leu-His-Lys(Cl-Z)-Leu-Gln-Thr(Bzl)-Tyr(Bzl)-Pro-Arg(Tos)-Thr(Bzl)-Asp(OBzl)-Val-Gly-Ala-Gly-Thr(Bzl)-Pro--NH2	63.9%
Boc-Lys(COCH3)-Leu-Ser(Bzl)-Gln-Glu(OcHex)-Leu-Asn-Lys(Cl-Z)-Leu-Gln- Thr(Bzl)-Pro-Gln-Thr(Bzl)-Asp(OcHex)-Val-Gly-Ala-Gly-Thr(Bzl)-Pro--NH2	91.2%
Boc-Lys(COCH3)-Leu-Ser(Bzl)-Gln-Glu(OcHex)-Leu-Gly-Lys(Cl-Z)-Leu-Gln- Thr(Bzl)-Pro-Gln-Thr(Bzl)-Asp(OcHex)-Val-Gly-Ala-Gly-Thr(Bzl)-Pro--NH2	88.6%
Boc-Lys(Cl-Bz)-Leu-Ser(Bzl)-Gln-Glu(OBzl)-Leu-His-Lys(Cl-Z)-Leu-Gln-Thr(Bzl)-Tyr(Bzl)-Pro-Arg(Tos)-Thr(Bzl)-Asp(OBzl)-Val-Gly-Ala-Gly-Thr(Bzl)-Pro--NH2	58.3%
Boc-Lys(Cl-Z)-Gln-Thr(Bzl)-Tyr(Cl2 -Bzl)-Pro-Arg(Tos)-Thr(Bzl)-Asp(OBzl)-Val-Gly-Ala-Gly-Thr(Bzl)-Pro--NH2	93.0%
Boc-Lys(Cl-Z)-Leu-Gln-Thr(Bzl)-Tyr(Cl2-Bzl)-Pro-Gln-Thr(Bzl)-Asp(OcHex)-Val-Gly-Ala-Gly-Thr(Bzl)-Pro--NH2	88.2%
Boc-Lys(Cl-Z)-Leu-Ser(Bzl)-Gln-Glu(OEt)-Leu-His-Lys(Cl-Z)-Leu-Gln-Thr(Bzl)-Pro-Arg(Tos)-Thr(Bzl)-Asp(OEt)-Val-Vly-Ala-Gly-Thr(Bzl)-Pro--NH2	87.7%
Boc-Lys(Cl-Z)-Leu-Ser(Bzl)-Gln-Glu(OcHex)-Leu-His(Tos)-Lys(Cl-Z)-Gln-Thr(Bzl)-Tyr(Cl2 -Bzl)-Pro-Arg(Tos)-Thr(Bzl)-Asp(OBzl)-Val-Gly-Ala-Gly-Thr(Bzl)-Pro--NH2	86.4%
Boc-Lys(Cl-Z)-Leu-Ser(Bzl)-Gln-Glu(OcHex)-Leu-His(Tos)-Lys(Cl-Z)-Leu-Gln-Thr(Bzl)-Pro-Arg(Tos)-Thr(Bzl)-Asp(OEt)-Val-Gly-Ala-Gly-Thr(Bzl)-Pro--NH2	90.3%
Boc-Lys(Cl-Z)-Leu-Ser(Bzl)-Gln-Glu(OcHex)-Leu-His(Tos)-Lys(Cl-Z)-Leu-Gln-Thr(Bzl)-Pro-Thr(Bzl)-Asp(OBzl)-Val-Gly-Ala-Gly-Thr(Bzl)-Pro--NH2	86.4%
Boc-Lys(Z)-Leu-Ser(Bzl)-Gln-Glu(OcHex)-Leu-Asn-Lys(Cl-Z)-Leu-Gln-Thr(Bzl)-Tyr(Cl2-Bzl)-Pro-Gln-Thr(Bzl)-Asp(OcHex)-Val-Gly-Ala-Gly-Thr(Bzl)-Pro--NH2	95.9%
Boc-Lys(Z)-Leu-Ser(Bzl)-Gln-Glu(OcHex)-Leu-Gly-Lys(Cl-Z)-Leu-Gln-Thr(Bzl)-Tyr(Cl2-Bzl)-Pro-Gln-Thr(Bzl)-Asp(OcHex)-Val-Gly-Ala-Gly-Thr(Bzl)-Pro--NH2	97.5%

From patent US5162305 (dated 1992)
